The values that follow come from PubChem BioAssay AID493014 (National Center for Advancing Translational Sciences (NCATS), 2011).

The list shows a part of the results. The main result of the screen is listed elsewhere. These columns were measured beside it and carry no call. Most of these compounds were active or inconclusive in the main read-out, so they are no random draw. The note in brackets gives the kind of curve behind each potency; many fits are weak.

The assay is described as follows: qHTS Assay to Find Inhibitors of Chronic Active B-Cell Receptor Signaling. The following applies: ABC-DLBCL IkBa-CBG/CBR reporter, luminescence ratio (green luciferase fused to IkBa over red control in TMD8 lymphoma cells), 4 h; measured here: CBR red luminescence, cell number. Summed up:
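TMD8 ABC-DLBCL cells carrying doxycycline-inducible green luciferase fused to IkappaBalpha plus unfused red luciferase were exposed to compounds (up to 46 uM) for 4 hrs at 37C. Activity came from the overlap-corrected green/red luminescence ratio.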
Background: Quantitative high-throughput screening tests each substance at several concentrations.
As a reminder, the AC50 is the concentration at which the activity in the assay is half-maximal. With `COc1ccc(C(C)=O)cc1CSc1nc2ccccc2c(=O)n1-c1cccc(C)c1`, the AC50 is 0.326 µM [rising, full curve, poor fit].
For `CC1=C(CC(=O)c2ccc(Cl)cc2)C(=O)c2ccccc2C1=O`, the AC50 was 11.2 µM [falling, single point].
The result for `Cc1nc2c(-c3ccc(F)cc3)cnn2c(N)c1-c1ccccc1` reads 35.5 µM [falling, single point]; that for `Cc1ccc(F)c(NC(=O)c2ccc(Cn3cc(Cl)cn3)cc2)c1`, 35.5 µM [falling, single point]; that for `CCN(CC)c1ccc(/C=N/NC(=O)c2ccoc2C)cc1`, 11.2 µM [falling, partial curve].
The result for `Cc1ccc(C2C(C#N)=C(N)Oc3c2sc2ccccc32)o1` (stereo not given) reads 7.08 µM [falling, partial curve, poor fit]; that for `Cc1ccc(CNC(=O)c2cc(COc3c(F)cccc3F)on2)s1`, 35.5 µM [falling, partial curve, poor fit]; that for `COc1cc(C(=O)N(Cc2cc3ccccc3[nH]c2=O)CC2CCCO2)cc(OC)c1OC` (stereo not given), 2.82 µM [rising, partial curve, poor fit].
In the case of `N#Cc1cc(-c2ccccc2)oc1NC(=O)c1ccco1` it was 32.6 µM [falling, single point].
With `CN(CC(=O)Nc1ccccc1Cl)C(=O)COC(=O)c1ccc([N+](=O)[O-])cc1Cl`, the AC50 is 29.1 µM [rising, single point].
Consider `C=CCNc1nc(N)c([N+](=O)[O-])c(NCc2ccccc2)n1`, for which the AC50 was 22.4 µM [rising, partial curve, poor fit].
On to `CCCCN1C(=S)NC[C@@H]1Cc1cccc2ccccc12`, for which the AC50 was 5.62 µM [rising, single point].
With `CN1/C(=C\C=N\NC(=O)c2ccc(O)cc2)C(C)(C)c2ccccc21`, the AC50 is 14.6 µM [falling, partial curve].
The result for `Nc1ccc(C(=O)CC(=O)Nc2ccc(Cl)cc2)cc1` reads 28.2 µM [falling, single point]; that for `Cc1ccc(NC(=O)[C@@H]2CCCN2S(=O)(=O)c2ccccc2C(F)(F)F)cc1S(=O)(=O)N1CCOCC1`, 16.4 µM [falling, single point].
The result for `N#C/C(N=Nc1ccccc1O)=N\Nc1ccccc1O` reads 5.17 µM [falling, full curve, poor fit].
As to `Cc1ccc(Cl)cc1NC(=O)C1CCN(S(C)(=O)=O)CC1`, the AC50 is 2.82 µM [rising, full curve, poor fit].
On to `COc1cccc(CNC(=O)c2cc3c(C)nc4ccccc4c3o2)c1`, for which the AC50 was 25.9 µM [falling, single point].
The result for `COc1ccc(Cn2c(C)nc([N+](=O)[O-])c2SCC(=O)O)cc1[N+](=O)[O-]` reads 3.16 µM [rising, partial curve, poor fit]; that for `CCOc1ccccc1-c1nc(C(N)=O)c2[nH]c(=O)n(-c3cccc(C)c3)c2n1`, 12.6 µM [falling, single point].
